For assay [1], the target named is CD45 (R&D Systems) (UniProt P08575). The experiment in a line: plate assay: biotinylated HAS-Gal-1 (25 ng) on coated CD45, streptavidin-HRP.
Assay [2] shares this target. The experiment in a line: plate assay: biotinylated HAS-Gal-1 on coated CD45, streptavidin-HRP.
Assay [3] shares this target. The assay is described as follows: plate assay: biotinylated HAS-Gal-3 on coated CD45, streptavidin-HRP.

By UniProt entry, the sequences of proteins in these tests, tags left out. Where a name states a change or a piece, a line headed by the entry shows the natural chain unless it says otherwise. Residues count along the entry.
UniProt P08575, residues 26-577: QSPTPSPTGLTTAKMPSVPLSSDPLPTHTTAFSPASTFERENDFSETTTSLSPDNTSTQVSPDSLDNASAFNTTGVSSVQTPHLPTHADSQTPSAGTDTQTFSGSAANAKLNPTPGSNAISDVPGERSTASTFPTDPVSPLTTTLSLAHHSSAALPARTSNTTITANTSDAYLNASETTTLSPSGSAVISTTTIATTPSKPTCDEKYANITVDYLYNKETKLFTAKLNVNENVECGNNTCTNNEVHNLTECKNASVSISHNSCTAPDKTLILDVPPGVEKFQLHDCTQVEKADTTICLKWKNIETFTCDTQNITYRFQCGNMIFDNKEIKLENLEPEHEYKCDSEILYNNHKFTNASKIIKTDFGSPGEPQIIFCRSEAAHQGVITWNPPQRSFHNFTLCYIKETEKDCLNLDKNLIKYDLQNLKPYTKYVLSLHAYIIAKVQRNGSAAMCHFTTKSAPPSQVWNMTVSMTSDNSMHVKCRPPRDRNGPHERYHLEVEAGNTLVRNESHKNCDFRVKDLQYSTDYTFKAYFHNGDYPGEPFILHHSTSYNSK
UniProt P09382: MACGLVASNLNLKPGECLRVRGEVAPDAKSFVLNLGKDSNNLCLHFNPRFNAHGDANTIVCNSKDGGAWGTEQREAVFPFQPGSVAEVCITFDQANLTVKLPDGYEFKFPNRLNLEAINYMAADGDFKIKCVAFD
UniProt P17931: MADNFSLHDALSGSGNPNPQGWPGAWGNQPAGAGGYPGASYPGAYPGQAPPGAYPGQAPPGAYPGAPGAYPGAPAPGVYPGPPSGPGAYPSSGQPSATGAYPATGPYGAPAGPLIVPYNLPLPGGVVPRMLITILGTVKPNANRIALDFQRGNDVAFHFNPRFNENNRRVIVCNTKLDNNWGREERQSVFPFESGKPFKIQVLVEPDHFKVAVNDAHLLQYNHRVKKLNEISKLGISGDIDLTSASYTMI

This note sets out measurements from patent US20170343552A1.

No constants are given. Whether binding was seen depends on the method and setting. Some results given as binding are weak or reduced against the parent protein; the word gives no strength.

As to “Biotinylated His-Avi-SUMO tagged galectin-1 (HAS-Gal-1) (from UniProt P09382 2-135) (ligand)”, the binding result with CD45 (R&D Systems) [1] and with CD45 (R&D Systems) [2] was “binds” in each case.

With “Biotinylated His-Avi-SUMO tagged galectin-3 (HAS-Gal-3) (from UniProt P17931 2-250) (ligand)”, the binding result with CD45 (R&D Systems) [3] is reported as “binds”.
